Results taken from paper PMC4839630, “Investigation the Possibility of Using Peptides with a Helical Repeating Pattern of Hydro-Phobic and Hydrophilic Residues to Inhibit IL-10” (PLoS ONE, 2016).
Results are given in words; binding and its absence hold for the method and conditions named. Some entries that bind do so weakly or less than the wild type.

Chains of the proteins cited; added tags and fusions are not shown. Residues count along the entry.
UniProt P22301, residues 19-178: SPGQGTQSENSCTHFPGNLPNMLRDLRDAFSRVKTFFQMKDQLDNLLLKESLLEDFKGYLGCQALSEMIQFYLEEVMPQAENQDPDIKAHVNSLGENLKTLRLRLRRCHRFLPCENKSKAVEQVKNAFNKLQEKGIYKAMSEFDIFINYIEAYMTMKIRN

Biological target: T1, Recombinant Human interleukin 10 receptor alpha (human) (UniProt Q13651)
T1 sequence: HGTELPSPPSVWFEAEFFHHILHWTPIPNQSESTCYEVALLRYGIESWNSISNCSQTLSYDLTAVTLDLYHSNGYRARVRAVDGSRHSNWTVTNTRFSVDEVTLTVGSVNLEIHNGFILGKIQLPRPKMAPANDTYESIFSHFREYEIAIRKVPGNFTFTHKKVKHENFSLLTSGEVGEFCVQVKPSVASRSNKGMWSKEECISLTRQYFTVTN
Assay: SPR; competitive binding assay: peptides at various concentrations co-injected with 33 nM IL-10 over immobilised IL-10R1, 25°C, 1X PBS pH 7.4; inhibition read as loss in total response units; both purified

binding: binds
Substance: Human IL10 (from UniProt P22301 19-178) (ligand)
